Test results taken from the supplement of paper PMC10849652.
Some of the results follow.

The chains behind the UniProt entries cited, without tags or fusion partners. Where a name states a change or a piece, a line headed by the entry shows the natural chain unless it says otherwise.
UniProt Q8IW45: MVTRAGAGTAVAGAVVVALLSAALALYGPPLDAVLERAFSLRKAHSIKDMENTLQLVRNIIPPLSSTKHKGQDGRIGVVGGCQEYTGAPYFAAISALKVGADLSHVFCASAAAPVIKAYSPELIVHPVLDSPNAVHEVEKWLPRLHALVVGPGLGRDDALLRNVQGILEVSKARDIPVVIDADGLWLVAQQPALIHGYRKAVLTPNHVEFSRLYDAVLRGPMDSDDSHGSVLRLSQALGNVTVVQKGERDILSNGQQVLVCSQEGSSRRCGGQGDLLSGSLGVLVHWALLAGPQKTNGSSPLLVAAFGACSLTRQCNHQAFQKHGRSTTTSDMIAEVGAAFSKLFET
UniProt Q9NV92: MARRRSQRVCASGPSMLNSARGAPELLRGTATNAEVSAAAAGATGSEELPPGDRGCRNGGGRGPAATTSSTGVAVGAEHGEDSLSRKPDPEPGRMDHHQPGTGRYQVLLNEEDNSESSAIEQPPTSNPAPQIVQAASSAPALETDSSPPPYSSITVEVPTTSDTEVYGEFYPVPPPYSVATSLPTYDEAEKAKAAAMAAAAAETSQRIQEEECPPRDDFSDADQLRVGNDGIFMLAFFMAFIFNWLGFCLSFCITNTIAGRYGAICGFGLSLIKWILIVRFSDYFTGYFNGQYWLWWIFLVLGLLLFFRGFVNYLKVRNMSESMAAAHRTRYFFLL
UniProt Q6ZVX7: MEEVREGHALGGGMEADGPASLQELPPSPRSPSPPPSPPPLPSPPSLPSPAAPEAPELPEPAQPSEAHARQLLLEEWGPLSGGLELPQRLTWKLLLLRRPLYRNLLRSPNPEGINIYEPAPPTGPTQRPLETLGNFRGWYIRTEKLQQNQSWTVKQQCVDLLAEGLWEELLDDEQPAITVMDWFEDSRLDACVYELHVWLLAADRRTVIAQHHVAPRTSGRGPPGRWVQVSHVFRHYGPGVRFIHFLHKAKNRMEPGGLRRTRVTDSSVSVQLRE
UniProt Q8NEY1: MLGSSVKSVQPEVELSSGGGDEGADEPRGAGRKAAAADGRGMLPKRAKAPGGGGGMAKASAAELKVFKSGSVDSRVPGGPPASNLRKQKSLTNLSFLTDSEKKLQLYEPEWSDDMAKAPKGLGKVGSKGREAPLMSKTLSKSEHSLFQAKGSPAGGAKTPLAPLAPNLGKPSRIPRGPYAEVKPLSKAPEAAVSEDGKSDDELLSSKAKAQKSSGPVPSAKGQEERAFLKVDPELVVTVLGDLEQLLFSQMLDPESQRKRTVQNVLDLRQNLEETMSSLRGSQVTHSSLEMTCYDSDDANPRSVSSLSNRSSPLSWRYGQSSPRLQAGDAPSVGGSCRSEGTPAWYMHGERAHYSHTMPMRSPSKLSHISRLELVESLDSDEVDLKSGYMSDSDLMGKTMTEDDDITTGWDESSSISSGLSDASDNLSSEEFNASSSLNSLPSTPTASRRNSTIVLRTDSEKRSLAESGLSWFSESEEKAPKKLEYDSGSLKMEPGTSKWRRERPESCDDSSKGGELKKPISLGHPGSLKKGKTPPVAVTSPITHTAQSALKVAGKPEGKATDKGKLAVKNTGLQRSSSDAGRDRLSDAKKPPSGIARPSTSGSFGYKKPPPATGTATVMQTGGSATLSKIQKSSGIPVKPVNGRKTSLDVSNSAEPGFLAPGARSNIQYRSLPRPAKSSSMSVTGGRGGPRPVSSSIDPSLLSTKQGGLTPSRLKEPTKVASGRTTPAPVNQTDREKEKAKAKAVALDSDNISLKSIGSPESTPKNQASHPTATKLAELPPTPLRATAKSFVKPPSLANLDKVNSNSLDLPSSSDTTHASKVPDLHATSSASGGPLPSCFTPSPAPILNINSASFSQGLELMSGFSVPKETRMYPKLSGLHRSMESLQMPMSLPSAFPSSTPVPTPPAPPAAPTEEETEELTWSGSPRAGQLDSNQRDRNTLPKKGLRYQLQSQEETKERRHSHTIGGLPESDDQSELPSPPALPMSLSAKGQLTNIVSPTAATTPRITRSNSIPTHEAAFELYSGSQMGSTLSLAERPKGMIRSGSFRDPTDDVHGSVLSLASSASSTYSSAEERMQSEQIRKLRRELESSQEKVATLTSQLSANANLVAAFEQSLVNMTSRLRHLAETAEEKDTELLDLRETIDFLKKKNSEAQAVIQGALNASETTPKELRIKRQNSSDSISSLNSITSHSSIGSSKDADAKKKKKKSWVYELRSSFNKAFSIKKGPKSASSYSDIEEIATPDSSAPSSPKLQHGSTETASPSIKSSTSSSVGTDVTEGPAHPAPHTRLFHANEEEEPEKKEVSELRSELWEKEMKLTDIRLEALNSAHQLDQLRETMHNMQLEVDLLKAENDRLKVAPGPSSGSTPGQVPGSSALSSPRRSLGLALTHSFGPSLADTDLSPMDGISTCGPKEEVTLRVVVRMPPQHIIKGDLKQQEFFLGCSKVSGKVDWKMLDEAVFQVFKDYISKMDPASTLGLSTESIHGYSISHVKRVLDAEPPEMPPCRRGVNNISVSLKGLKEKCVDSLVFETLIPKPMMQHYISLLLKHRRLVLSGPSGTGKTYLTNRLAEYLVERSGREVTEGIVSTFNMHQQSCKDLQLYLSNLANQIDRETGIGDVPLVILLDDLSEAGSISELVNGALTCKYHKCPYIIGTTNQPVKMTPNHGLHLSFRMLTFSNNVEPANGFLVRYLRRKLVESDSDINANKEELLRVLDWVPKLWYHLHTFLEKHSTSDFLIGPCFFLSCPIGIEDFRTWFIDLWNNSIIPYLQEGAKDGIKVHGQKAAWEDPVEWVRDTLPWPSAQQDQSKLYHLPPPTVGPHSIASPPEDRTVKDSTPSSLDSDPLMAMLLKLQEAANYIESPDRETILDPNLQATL
UniProt Q6ZNJ1: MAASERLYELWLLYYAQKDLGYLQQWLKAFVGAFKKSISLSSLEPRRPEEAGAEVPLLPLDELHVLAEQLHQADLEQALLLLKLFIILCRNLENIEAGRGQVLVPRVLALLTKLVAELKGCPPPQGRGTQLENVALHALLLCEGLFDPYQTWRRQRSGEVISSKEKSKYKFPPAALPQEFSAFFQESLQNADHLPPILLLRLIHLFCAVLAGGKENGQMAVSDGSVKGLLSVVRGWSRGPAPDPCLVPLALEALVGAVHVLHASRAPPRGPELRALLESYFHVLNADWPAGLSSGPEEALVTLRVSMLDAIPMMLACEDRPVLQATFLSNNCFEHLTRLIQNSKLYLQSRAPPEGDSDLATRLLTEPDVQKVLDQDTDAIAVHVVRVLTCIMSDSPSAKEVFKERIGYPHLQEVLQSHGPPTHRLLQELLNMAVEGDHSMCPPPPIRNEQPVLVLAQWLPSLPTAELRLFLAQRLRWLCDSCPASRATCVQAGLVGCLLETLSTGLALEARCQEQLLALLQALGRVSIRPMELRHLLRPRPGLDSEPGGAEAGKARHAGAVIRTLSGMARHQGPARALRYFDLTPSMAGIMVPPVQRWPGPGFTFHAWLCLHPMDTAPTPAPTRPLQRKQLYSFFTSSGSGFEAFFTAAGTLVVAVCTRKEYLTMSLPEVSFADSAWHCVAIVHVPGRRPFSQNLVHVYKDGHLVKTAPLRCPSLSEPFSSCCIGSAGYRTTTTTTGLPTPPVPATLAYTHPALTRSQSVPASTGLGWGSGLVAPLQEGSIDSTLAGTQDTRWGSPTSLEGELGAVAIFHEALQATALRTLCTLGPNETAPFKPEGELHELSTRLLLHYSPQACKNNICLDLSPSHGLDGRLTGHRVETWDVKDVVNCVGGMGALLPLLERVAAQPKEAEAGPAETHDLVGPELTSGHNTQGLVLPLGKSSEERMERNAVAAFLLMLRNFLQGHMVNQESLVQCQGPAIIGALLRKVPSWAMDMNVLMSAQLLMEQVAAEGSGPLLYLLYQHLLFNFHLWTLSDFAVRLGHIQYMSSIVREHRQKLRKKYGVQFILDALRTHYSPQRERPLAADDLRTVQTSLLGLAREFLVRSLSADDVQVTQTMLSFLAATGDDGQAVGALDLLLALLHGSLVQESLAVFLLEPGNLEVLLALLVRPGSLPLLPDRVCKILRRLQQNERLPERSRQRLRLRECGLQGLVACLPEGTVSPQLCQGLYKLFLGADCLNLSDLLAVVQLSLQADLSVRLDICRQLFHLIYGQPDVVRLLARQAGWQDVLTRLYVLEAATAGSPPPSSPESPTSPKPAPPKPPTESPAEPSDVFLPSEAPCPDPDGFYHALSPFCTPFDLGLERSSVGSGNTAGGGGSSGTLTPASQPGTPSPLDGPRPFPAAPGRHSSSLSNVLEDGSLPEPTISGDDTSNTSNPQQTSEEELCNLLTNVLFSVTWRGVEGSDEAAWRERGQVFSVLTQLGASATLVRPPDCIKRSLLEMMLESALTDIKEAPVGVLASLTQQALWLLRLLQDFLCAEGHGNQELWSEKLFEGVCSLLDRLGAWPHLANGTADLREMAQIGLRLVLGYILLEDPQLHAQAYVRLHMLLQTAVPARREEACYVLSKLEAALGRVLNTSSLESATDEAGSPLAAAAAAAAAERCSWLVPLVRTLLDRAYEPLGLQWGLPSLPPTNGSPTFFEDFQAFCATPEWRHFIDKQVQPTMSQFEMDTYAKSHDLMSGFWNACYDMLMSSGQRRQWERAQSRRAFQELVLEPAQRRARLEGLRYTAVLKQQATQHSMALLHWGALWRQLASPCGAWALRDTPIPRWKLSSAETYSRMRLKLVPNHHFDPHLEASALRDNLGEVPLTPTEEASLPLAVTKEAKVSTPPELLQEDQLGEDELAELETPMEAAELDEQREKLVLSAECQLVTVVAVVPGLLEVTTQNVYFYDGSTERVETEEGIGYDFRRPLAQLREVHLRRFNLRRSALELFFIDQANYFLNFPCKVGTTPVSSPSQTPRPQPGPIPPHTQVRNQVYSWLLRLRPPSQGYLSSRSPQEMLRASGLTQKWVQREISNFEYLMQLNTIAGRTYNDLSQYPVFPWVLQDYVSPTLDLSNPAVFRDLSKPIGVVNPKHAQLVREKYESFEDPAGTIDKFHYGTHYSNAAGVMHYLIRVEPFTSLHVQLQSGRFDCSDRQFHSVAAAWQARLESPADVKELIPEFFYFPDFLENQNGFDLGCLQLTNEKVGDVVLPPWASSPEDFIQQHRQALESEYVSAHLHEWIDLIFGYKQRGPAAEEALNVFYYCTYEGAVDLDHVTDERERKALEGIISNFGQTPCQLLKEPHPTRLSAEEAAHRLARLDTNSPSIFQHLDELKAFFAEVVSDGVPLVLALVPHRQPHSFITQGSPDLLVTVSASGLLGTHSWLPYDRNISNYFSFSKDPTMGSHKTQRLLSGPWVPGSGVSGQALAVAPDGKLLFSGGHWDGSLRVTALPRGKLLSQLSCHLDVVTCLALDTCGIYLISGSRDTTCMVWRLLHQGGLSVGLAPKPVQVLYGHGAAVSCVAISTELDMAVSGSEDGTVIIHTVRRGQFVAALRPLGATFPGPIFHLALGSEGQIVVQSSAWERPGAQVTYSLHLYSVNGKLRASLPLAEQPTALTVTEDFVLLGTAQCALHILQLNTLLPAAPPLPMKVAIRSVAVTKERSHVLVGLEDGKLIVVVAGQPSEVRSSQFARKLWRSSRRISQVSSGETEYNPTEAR
UniProt O14777: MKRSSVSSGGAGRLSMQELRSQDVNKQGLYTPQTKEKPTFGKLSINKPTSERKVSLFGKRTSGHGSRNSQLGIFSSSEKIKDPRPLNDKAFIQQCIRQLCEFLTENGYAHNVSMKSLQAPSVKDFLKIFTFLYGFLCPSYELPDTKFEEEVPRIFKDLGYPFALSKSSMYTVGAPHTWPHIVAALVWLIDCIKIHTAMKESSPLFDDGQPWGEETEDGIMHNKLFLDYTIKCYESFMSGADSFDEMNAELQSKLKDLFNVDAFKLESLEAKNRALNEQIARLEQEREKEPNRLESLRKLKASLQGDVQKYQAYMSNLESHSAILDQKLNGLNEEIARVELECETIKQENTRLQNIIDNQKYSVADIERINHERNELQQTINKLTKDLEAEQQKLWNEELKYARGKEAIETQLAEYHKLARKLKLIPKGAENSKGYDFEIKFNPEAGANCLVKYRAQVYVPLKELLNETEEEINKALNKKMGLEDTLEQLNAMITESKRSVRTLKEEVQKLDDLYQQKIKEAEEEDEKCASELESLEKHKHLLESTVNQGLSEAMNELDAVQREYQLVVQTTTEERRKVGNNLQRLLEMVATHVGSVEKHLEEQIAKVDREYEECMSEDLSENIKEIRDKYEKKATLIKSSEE
UniProt O43677, whole entry, looked up: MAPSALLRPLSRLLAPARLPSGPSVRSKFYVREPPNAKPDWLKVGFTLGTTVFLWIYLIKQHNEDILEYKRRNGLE

Columns and labels:
Assay in all cases: log2 fold change, soluble protein after heating vs DMSO (PISA); higher = thermal stabilisation; K562 cells, 10 uM, 30 min; active = over 0.2 and 3.5 SD of the protein, either way, in both replicates (recomputed)
[1] = compound: C1=CC=C(C=C1)[C@H](COC2=CC3=C(C=C2)NC(=O)N3)NC(=O)C4=CC=CN(C4=O)CC5=CC(=C(C=C5)F)F
How it was run: (§1)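 Values are thermal stability changes relative to control samples and are taken from duplicates. They are stated as log2 fold changes. Before quantification by TMTpro 16plex LC-MS/MS with equalised channel sums, K562 cells at 2×10^6 cells/mL were treated with 10 μM compound for 30 min, heated in aliquots for 3 min across 48°C-58°C, pooled, extracted in PBS with 0.5% NP-40 at 4°C, and centrifuged at 21,000xg for 90 min to give the soluble supernatant.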

[2] = compound: CC1=C(SC2=C1C(=N[C@H](C3=NN=C(N32)C)CC(=O)N)C4=CC=C(C=C4)Cl)C
How it was run: as §1

[3] = compound: CC1=C2C(=CC=C1)N=C(N(C2=O)C3=CC=CC=C3C)CN4C=NC5=C(N=CN=C54)N
How it was run: as §1

[4] = compound: Cc1sc2c(c1C)C(c1ccc(Cl)cc1)=N[C@@H](CC(=O)OC(C)(C)C)c1nnc(C)n1-2
How it was run: as §1

[5] = compound: c1ccc([C@@H]2C[C@H]2NC2CCNCC2)cc1
How it was run: as §1

| Target | log2 fold change [1] | log2 fold change [2] | log2 fold change [3] | log2 fold change [4] | log2 fold change [5] |
| --- | --- | --- | --- | --- | --- |
| NAXD (UniProt Q8IW45) | inactive: 0.065 | inactive: 0.009 | inactive: -0.003 | inactive: 0.017 | inactive: 0.02 |
| NDFIP2 (UniProt Q9NV92) | – | – | – | inactive: 0.015 | – |
| NAP1L1 (UniProt B7Z9C2) | inactive: 0.003 | – | inactive: 0.134 | – | – |
| NDUFV1 (UniProt E9PJL9) | inactive: -0.029 | – | inactive: -0.077 | inactive: 0.108 | – |
| NCCRP1 (UniProt Q6ZVX7) | – | – | inactive: -0.167 | – | – |
| NAV1 (UniProt Q8NEY1) | – | inactive: 0.048 | inactive: -0.008 | inactive: 0.288 | inactive: -0.043 |
| NCOA4 isoform 4 (UniProt Q13772) | – | inactive: -0.088 | – | – | inactive: 0.127 |
| NBEAL2 (UniProt Q6ZNJ1) | – | inactive: -0.073 | – | – | inactive: -0.099 |
| NA, A0A1W2PSA9 | – | inactive: -0.046 | – | inactive: 0.006 | inactive: 0.104 |
| NAA40 (UniProt Q86UY6) | – | inactive: -0.077 | inactive: -0.085 | inactive: 0.342 | inactive: 0.131 |
| NCKAP5L (UniProt Q9HCH0) | – | – | inactive: 0.178 | – | – |
| NDC80 (UniProt O14777) | – | inactive: -0.127 | inactive: 0.021 | inactive: 0.128 | inactive: -0.06 |
| NCKIPSD (UniProt Q9NZQ3) | – | – | inactive: 0.033 | – | – |
| NDUFC1 (UniProt O43677) | – | inactive: -0.006 | – | – | inactive: 0.035 |
| NDST2 (UniProt P52849) | inactive: 0.072 | – | inactive: -0.027 | inactive: 0.032 | – |

2 records picked at random from those above:

| Target | log2 fold change [1] | log2 fold change [2] | log2 fold change [3] | log2 fold change [4] | log2 fold change [5] |
| --- | --- | --- | --- | --- | --- |
| NCCRP1 (UniProt Q6ZVX7) | – | – | inactive: -0.167 | – | – |
| NAP1L1 (UniProt B7Z9C2) | inactive: 0.003 | – | inactive: 0.134 | – | – |
